PubChem BioAssay AID504774, Drosophila RNAi Screening Center | 2011
The deposit covers about 23,000 reagents; shown is an unselected part of those that have a named target and a result. 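Values are quantile-normalised luminescence on an arbitrary scale; higher means more cells surviving MMS.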 Names joined by + are all predicted targets of the reagent. Further read-outs or replicates are left out here. No sequences are given here.

- Assay: 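Fly genes whose loss alters survival after alkylation damage to DNA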 (primary screen)
- Cells: Drosophila Kc167 cells
- Reagents: long dsRNA against Drosophila genes, about 0.25 µg dsRNA per well
- Timing: about 6 days: 3 days knock-down, then 3 days with or without MMS
- Challenge: methyl methanesulphonate 0.004% (w/v) for 3 days after knock-down
- Measured: 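ATP-dependent luminescence as a measure of live cells in MMS-exposed wells, quantile normalised within each plate, with replicate values also given as a mean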
- Direction: mean viability with MMS: higher = more surviving cells after MMS

gene knocked down	DRSC id	mean viability with MMS
CG6000	DRSC15938	3.60e6
CG9609	DRSC20199	3.67e6
CG34126	DRSC02726	3.52e6
CG34126	DRSC22079	3.77e6
Cyp4ae1	DRSC18455	3.62e6
CG1575	DRSC18069	3.56e6
CG1137	DRSC12529	3.49e6
CG14572	DRSC11733	3.67e6
Xrcc2	DRSC19984	3.31e6
Pdk1	DRSC08682	3.31e6
S-Lap8	DRSC06870	3.53e6
S-Lap8	DRSC21372	3.57e6
Ance-5	DRSC04055	3.53e6
CG15429	DRSC00444	3.53e6
CG2964	DRSC00554	3.39e6
Cpr73D	DRSC11084	3.65e6
CG14817	DRSC18547	3.55e6
Polr2L	DRSC14630	3.33e6
dpr19	DRSC02237	3.50e6
Trc8	DRSC15437	3.67e6
Pex1	DRSC11358	3.60e6
Cpr30B	DRSC02728	3.58e6
Adck5	DRSC10890	3.64e6
CG9147	DRSC03147	3.49e6
CG2574	DRSC19862	3.46e6
norpA	DRSC18806	3.31e6

Targets listed so far whose gene name starts with P or p:
gene knocked down	DRSC id	mean viability with MMS
Pdk1	DRSC08682	3.31e6
Polr2L	DRSC14630	3.33e6
Pex1	DRSC11358	3.60e6

More results follow.
gene knocked down	DRSC id	mean viability with MMS
Polr2F	DRSC12366	2.99e6
Acp32CD	DRSC01858	3.58e6
Gapdh1	DRSC07433	3.54e6
Lsm10	DRSC06250	3.45e6
goe	DRSC19345	3.59e6
CG7214	DRSC03028	3.81e6
CG7214	DRSC21869	3.61e6
CG14309	DRSC14788	3.47e6
Grip163	DRSC10538	3.59e6
His4:CG33883 + His4:CG33889 + His4:CG33899 + 20 more	DRSC21268	3.33e6
Or85b	DRSC16765	3.42e6
CG34256	DRSC09582	3.63e6
CG14321	DRSC14800	3.62e6
l(3)76BDm	DRSC11047	3.68e6
PDCD-5	DRSC09955	3.46e6
Cyp28c1	DRSC20236	3.57e6
CG6138	DRSC02933	3.51e6
CG10725	DRSC09788	3.31e6
CG32718	DRSC17538	3.52e6
CG33299	DRSC01085	3.50e6
phr6-4	DRSC03589	3.59e6
CG32647	DRSC19690	3.53e6
CG32647	DRSC19878	3.48e6
ATPsynO	DRSC16780	3.37e6
CG33128	DRSC00294	3.50e6
bs	DRSC04676	3.67e6
bs	DRSC23068	2.57e6
CG18469	DRSC21838	3.43e6
CG11317	DRSC14299	3.47e6
Elba2	DRSC00731	3.57e6
subdued	DRSC15137	3.55e6
CG44837	DRSC10133	3.32e6
CG44837	DRSC10558	3.56e6
CG3061	DRSC15460	3.52e6
CG7264	DRSC10793	3.48e6
CG13847	DRSC14697	2.96e6
CG13847	DRSC23172	3.50e6
Su(dx)	DRSC00791	3.55e6
cpa	DRSC04080	3.50e6
CG9451	DRSC11074	3.48e6
chm	DRSC03341	3.63e6
Ype	DRSC20301	3.54e6
